Values quoted from earlier work as cited in patent US12338266B2 (GENETIC S.P.A., priority 2019, dated 2025).
Some entries share one result that the patent states for a list of compounds.

Conditions: in vivo; cited from earlier work

**Q.** For `CC(C)C(=O)OCC(=O)[C@@]12O[C@H](C3CCCCC3)O[C@@H]1C[C@H]1[C@@H]3CCC4=CC(=O)C=C[C@]4(C)[C@H]3[C@@H](O)C[C@@]12C` [ciclesonide, (11β,16α)-16,17-[[(R)-cyclohexylmethylene]bis(oxy)]-11-hydroxy-21-(2-methyl-1-oxopropoxy)pregna-1,4-diene-3,20-dione], which oral bioavailability is on record?
**A.** less than 1%
